From patent US20200377869
For some of these results: A negative result means that nothing was seen under these conditions. For some of these results: Protein sequences can lack the tags named with them. Weaker means in comparison with the reference protein, sequence or condition of that experiment. Construct, isoform or probe ends are uncertain for at least one entry.

By UniProt entry, the sequences of proteins in these tests, tags left out.
UniProt P19821, whole entry: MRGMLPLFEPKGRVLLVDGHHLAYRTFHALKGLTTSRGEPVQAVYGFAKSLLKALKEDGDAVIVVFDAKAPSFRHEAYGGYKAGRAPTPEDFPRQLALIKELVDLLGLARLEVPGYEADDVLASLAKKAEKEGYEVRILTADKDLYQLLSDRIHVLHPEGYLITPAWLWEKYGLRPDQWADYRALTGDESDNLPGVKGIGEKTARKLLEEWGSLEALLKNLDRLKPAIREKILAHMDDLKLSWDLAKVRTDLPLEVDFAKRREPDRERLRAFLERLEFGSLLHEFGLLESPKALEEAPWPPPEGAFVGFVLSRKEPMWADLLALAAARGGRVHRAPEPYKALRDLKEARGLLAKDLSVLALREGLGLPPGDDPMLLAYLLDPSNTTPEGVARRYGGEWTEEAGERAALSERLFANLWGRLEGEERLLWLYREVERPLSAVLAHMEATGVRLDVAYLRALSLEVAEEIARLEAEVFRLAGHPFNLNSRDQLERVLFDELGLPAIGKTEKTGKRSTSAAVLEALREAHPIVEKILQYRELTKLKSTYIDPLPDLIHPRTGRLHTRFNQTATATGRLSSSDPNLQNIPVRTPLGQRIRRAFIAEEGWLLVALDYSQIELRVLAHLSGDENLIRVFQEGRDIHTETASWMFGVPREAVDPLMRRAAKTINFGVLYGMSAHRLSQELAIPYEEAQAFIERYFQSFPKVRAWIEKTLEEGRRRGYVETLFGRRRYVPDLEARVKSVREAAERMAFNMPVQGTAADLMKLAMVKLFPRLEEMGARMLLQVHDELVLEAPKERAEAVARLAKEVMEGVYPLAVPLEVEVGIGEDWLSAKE

Tests used:
[1] = molecular target: T1, Endonuclease V (Thermotoga maritima) (UniProt Q9X2H9); assay: enzyme reaction in vitro; settings: purified recombinant protein, protein details: Fisher Scientific FEREN0141, folded or branched DNA
T1 sequence (looked up, limits assumed): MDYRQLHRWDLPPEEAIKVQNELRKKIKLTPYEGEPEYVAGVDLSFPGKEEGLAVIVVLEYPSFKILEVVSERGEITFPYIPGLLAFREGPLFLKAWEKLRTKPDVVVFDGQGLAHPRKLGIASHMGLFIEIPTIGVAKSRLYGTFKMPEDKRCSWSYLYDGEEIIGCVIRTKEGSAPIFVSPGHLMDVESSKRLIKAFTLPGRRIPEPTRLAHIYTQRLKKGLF

Taq DNA polymerase = Taq DNA polymerase (UniProt P19821); assay: inhibition of the protein; settings: 80 nM aptamer, purified recombinant protein, protein details: GenScript E00007, folded or branched DNA

Q: “AAATTATATTCTTAGCGTTTTATAATTTTAAAACGAAGTTTTA [circular aptamer SEQ ID NO:14]” was tested. Which “activity on this sequence” value ([1]; deoxyinosine at position 15 (n), loop TTCTTAICGTTT [15 deoxyinosine (parent base G)], only partial Taq reactivation (indirect PCR readout), letters built from the parent sequence and the stated change, variant of circular aptamer SEQ ID NO:6) did it give?
A: less active

Q: What about the “functional effect of the aptamer” value (Taq DNA polymerase; deoxyinosine at position 15 (n), loop TTCTTAICGTTT [15 deoxyinosine (parent base G)], highly effective deactivation, 60 C, letters built from the parent sequence and the stated change, variant of circular aptamer SEQ ID …) of the same sequence?
A: active

Q: For “AGTTTTAAAATTATATTCTTAGCGTTTTATAATTTTAAAACGA [noncircular aptamer SEQ ID NO:5]”, which “functional effect of the aptamer” value (Taq DNA polymerase; very little if any polymerase deactivation, real-time PCR 60 C, 5 mM MgCl2, 50 mM KCl, pH 8.0, variant of circular aptamer SEQ ID NO:6) is on record?
A: less active

Q: “AAATTATATTCTTAGCGTTTTATAATTTCAAAACGAAGTTTTA [circular aptamer SEQ ID NO:10]” was tested. Which “activity on this sequence” value ([1]; deoxyinosine at position 43 (n) [43 deoxyinosine (parent base A)], Taq activity completely restored (indirect PCR readout), letters built from the parent sequence and the stated change, variant of circular aptamer SEQ ID NO:6) did it give?
A: active

Q: What about the “functional effect of the aptamer” value (Taq DNA polymerase; deoxyinosine at position 43 (n) [43 deoxyinosine (parent base A)], less effective inactivation, worst of stem-inosine set, 60 C, letters built from the parent sequence and the stated change, variant of circular aptamer SEQ ID …) of the same sequence?
A: less active

Q: Which “functional effect of the aptamer” value (Taq DNA polymerase; deoxyinosine at position 3 (n) [3 deoxyinosine (parent base A)], very effective deactivation, 5 mM MgCl2, 60 C, letters built from the parent sequence and the stated change, variant of circular aptamer SEQ ID …) does the source give for “AAATTATATTCTTAGCGTTTTATAACTTTAAAACGAAGTTTTA [circular aptamer SEQ ID NO:9]” here?
A: active

Q: Which “functional effect of the aptamer” value (Taq DNA polymerase; deoxyinosine at position 17 (n), in loop [17 deoxyinosine (parent base G)], very ineffective deactivation, 60 C, letters built from the parent sequence and the stated change, variant of circular aptamer SEQ ID …) does the source give for “AAATTATATTCTTAGCGTTTTATAATTTTAAAACGAAGTTTTA [circular aptamer SEQ ID NO:15]” here?
A: less active

Q: “AAATTATATTCTTAGCGTTTTATAATTTTAAAACGAAGTTTTA [circular aptamer SEQ ID NO:6]” was tested. Which “activity on this sequence” value ([1]; inosine-free, Taq block not affected by endonuclease V (indirect PCR readout)) did it give?
A: not active

Q: And the “functional effect of the aptamer” value (Taq DNA polymerase; effectively blocks Taq during PCR, 5 mM MgCl2, 50 mM KCl, 60 C)?
A: active

Q: How did the “activity on this sequence” value ([1]; deoxyinosine at position 40 (n) [40 deoxyinosine (parent base T)], Taq activity completely restored (indirect PCR readout), letters built from the parent sequence and the stated change, variant of circular aptamer SEQ ID NO:6) turn out when “AAATTATATTCTTAGCGTTTTATAATTTTAACACGAAGTTTTA [circular aptamer SEQ ID NO:11]” was run?
A: active

Q: And the “functional effect of the aptamer” value (Taq DNA polymerase; deoxyinosine at position 40 (n) [40 deoxyinosine (parent base T)], less effective inactivation, 60 C, letters built from the parent sequence and the stated change, variant of circular aptamer SEQ ID …)?
A: less active

Q: For “AAACTATATTCTTAGCGTTTTATAATTTTAAAACGAAGTTTTA [circular aptamer SEQ ID NO:7]”, which “activity on this sequence” value ([1]; deoxyinosine at position 25 (n) [25 deoxyinosine (parent base A)], very effective reactivation of Taq (indirect PCR readout), 0.04 U/uL, 5 mM MgCl2, letters built from the parent sequence and the stated change, variant of circular aptamer SEQ ID NO:6) is on record?
A: active

Q: What about the “functional effect of the aptamer” value (Taq DNA polymerase; deoxyinosine at position 25 (n) [25 deoxyinosine (parent base A)], very effective inactivation, 5 mM MgCl2, 60 C, letters built from the parent sequence and the stated change, variant of circular aptamer SEQ ID …) of the same sequence?
A: active

Q: Which “activity on this sequence” value ([1]; deoxyinosine at position 30 (n) [30 deoxyinosine (parent base A)], very effective reactivation of Taq (indirect PCR readout), 0.04 U/uL, 5 mM MgCl2, letters built from the parent sequence and the stated change, variant of circular aptamer SEQ ID NO:6) does the source give for “AAATTATATTCTTAGCGTTTTATAATTTTAAAACGAAGTTTCA [circular aptamer SEQ ID NO:8]” here?
A: active

Q: What about the “functional effect of the aptamer” value (Taq DNA polymerase; deoxyinosine at position 30 (n) [30 deoxyinosine (parent base A)], very effective inactivation, 5 mM MgCl2, 60 C, letters built from the parent sequence and the stated change, variant of circular aptamer SEQ ID …) of the same sequence?
A: active

Q: “AAATTATATTCTTAGCGTTTTATAATTTTAAAACGAAGTTTTA [circular aptamer SEQ ID NO:13]” was tested. Which “functional effect of the aptamer” value (Taq DNA polymerase; deoxyinosine at position 13 (n), loop TTCTIAGCGTTT [13 deoxyinosine (parent base T)], inactivates but much less effective than SEQ 12, 60 C, letters built from the parent sequence and the stated change, variant of circular aptamer SEQ ID …) did it give?
A: less active
